Measured values reported in paper PMC7033117.
Results are given in words; binding and its absence hold for the method and conditions named. Binding seen in cells or lysates may run through a third protein. Here binding means that the protein was enriched with, or labelled near, the bait; the list need not be complete. Where a sequence is shown, tags or fusion partners need not be part of it.

Chains of the proteins cited; added tags and fusions are not shown.
UniProt Q9R190: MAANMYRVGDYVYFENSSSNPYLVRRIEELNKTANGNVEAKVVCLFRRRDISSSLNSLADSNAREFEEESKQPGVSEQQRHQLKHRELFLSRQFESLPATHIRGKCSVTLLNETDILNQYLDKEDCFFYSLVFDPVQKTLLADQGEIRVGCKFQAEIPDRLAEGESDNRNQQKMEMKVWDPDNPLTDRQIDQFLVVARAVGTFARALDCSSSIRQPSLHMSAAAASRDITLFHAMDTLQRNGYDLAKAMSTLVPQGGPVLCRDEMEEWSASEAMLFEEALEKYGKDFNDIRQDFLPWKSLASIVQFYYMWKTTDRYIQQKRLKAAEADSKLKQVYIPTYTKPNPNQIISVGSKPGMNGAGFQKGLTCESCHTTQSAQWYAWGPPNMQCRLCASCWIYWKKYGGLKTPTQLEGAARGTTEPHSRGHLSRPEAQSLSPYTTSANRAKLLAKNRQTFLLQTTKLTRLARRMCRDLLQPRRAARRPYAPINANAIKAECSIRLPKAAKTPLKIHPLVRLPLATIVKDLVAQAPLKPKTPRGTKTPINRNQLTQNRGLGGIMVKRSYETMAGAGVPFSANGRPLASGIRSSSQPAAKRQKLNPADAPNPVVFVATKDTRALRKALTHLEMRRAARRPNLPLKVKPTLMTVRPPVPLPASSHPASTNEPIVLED
UniProt Q8K4B0: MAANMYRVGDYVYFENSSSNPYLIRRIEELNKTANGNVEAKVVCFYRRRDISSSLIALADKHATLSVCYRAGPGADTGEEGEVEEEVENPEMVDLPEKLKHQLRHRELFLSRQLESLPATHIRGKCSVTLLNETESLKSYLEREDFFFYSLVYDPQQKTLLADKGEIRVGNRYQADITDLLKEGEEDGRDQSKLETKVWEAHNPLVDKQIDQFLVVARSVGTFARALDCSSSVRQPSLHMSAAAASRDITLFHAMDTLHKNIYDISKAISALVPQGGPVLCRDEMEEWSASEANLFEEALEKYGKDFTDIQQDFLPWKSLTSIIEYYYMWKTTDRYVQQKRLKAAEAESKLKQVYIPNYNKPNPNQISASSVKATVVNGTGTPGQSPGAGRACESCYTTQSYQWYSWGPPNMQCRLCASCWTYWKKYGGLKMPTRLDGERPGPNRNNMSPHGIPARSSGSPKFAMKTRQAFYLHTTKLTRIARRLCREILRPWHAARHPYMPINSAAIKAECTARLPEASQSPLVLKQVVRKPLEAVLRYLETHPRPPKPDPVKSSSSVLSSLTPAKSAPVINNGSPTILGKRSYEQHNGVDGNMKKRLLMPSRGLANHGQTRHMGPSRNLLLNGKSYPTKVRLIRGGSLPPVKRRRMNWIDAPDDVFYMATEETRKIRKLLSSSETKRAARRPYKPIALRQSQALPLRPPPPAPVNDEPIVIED

Target: T1, FLAG-KDM4D (mouse) (UniProt Q3U2K5)
T1 sequence: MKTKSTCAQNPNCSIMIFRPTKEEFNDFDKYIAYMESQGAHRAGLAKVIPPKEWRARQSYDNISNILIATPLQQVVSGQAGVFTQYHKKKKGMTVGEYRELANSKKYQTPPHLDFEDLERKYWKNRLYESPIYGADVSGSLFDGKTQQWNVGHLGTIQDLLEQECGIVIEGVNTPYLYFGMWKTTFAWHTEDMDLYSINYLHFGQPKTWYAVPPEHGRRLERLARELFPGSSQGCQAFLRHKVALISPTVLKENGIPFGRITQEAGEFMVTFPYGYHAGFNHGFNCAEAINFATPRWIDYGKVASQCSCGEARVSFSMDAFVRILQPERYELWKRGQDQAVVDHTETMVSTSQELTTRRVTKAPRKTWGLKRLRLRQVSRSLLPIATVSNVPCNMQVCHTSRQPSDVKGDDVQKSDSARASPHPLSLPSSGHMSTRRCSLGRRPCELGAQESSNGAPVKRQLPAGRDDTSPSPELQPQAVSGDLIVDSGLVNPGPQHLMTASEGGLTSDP
Assay: affinity purification with mass spectrometry; nuclear extracts (RIPA buffer, sonicated) of C3H10T1/2 cells expressing full length FLAG-KDM4D incubated with FLAG-M2 agarose for 16 h at 4 °C; SDS-PAGE, LC-MS/MS

Row | binding | Substance
1 | binds | Mta2 (from UniProt Q9R190 1-668)
2 | binds | Mta1 (from UniProt Q8K4B0 1-715)
